{
  "source": "PubChem BioAssay AID504834",
  "about": "(National Center for Advancing Translational Sciences (NCATS), 2011)",
  "note": "Screen size: about 320,000 compounds; about 22,000 (6.9%) were called active. Inconclusive results, whose numbers are uncertain, are shown with a selection of clear calls. The call rests on the fitted dose curve; in most records, active means well fitted inhibition curve with a large enough effect; inconclusive means small, poorly fitted or top-dose-only effect, or another doubt; inactive means no such curve, though single readings can be large or run the other way. A potency beside an inconclusive call is a rough fit, not a confirmed value. On the % scale 0 is the no-effect control and ±100 the full control effect; potency means the concentration at half of the fitted maximal effect.",
  "data": [
    {"test": "Primary qHTS for delayed death inhibitors of the malarial parasite plastid, 96 hour incubation", "conditions": "P. falciparum luciferase reporter growth; series mostly up to 28.7 µM; activity change, negative = inhibition: at the top concentration", "method_in_brief": "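Two-generation exposure (96 h) targets delayed-death phenotype. Reporter parasites carrying integrated firefly luciferase, in red cells at 2% hematocrit and 0.05% parasitemia final, kept at 37 C, 5% CO2; luminescence loss indicates inhibition.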", "values": [
      {"smiles": "CC1=C(n2nnc([N+](=O)[O-])n2)C(c2cccnc2)C(C#N)=C(N)O1", "note": "(stereo not given)", "Potency": "inconclusive: 13.1 µM [inhibitor, partial curve, poor fit]"},
      {"smiles": "Cc1cc(N=Cc2c(O)n(-c3cccc(Cl)c3)c(=O)c3ccccc23)no1", "activity change, negative = inhibition": "inactive: -27.4%"},
      {"smiles": "CCC(C)[C@H](Nc1nc(-c2ccccc2)nc2c1oc1ccccc12)C(=O)O", "note": "(stereo not given in full)", "Potency": "inconclusive: 0.037 µM [inhibitor, full curve, poor fit]"},
      {"smiles": "O=C(N/N=C/c1ccc(F)cc1)c1cc(-c2ccccn2)nc2ccccc12", "activity change, negative = inhibition": "inactive: 8.3%"},
      {"smiles": "CC1CCN(Cc2ccc(NC(=O)CC3Oc4ccccc4NC3=O)cc2)CC1", "note": "(stereo not given)", "activity change, negative = inhibition": "inactive: 69.3%"},
      {"smiles": "COc1ccc2oc(-c3ccccc3[N+](=O)[O-])cc(=O)c2c1", "activity change, negative = inhibition": "inactive: 38%"},
      {"smiles": "COC(=O)c1sc(=S)n(-c2ccc(Cl)cc2)c1C", "Potency": "inconclusive: 5.86 µM [inhibitor, partial curve, poor fit]"},
      {"smiles": "CCC[C@H]1CCCC/C=C\\CCCC(=O)OCCN1C(=O)OC(C)(C)C", "Potency": "inconclusive: 18.5 µM [inhibitor, single point]"},
      {"smiles": "CCCc1cc(C(=O)Cc2nc3ccccc3s2)c(O)cc1O", "Potency": "inconclusive: 16.5 µM [inhibitor, single point]"},
      {"smiles": "O=C(O)c1cc(/C=C/C(=O)c2cc(F)ccc2O)c2c(c1)COCO2", "activity change, negative = inhibition": "inactive: 6.19%"},
      {"smiles": "Cc1ccc2cccc(N=Cc3c(C)[nH]n(-c4ccccc4)c3=O)c2n1", "Potency": "inconclusive: 18.5 µM [inhibitor, single point]"},
      {"smiles": "CCCCNC(=O)c1ccccc1Cl", "Potency": "inconclusive: 0.522 µM [inhibitor, partial curve, poor fit]"},
      {"smiles": "N=C1c2c(cc(=O)n3c2[nH]c2ccccc23)CN1CCN1CCOCC1", "Potency": "inconclusive: 9.28 µM [inhibitor, single point]"},
      {"smiles": "CCc1cc2cc(C)cc(C)c2nc1SCC(=O)N1CCN(C(=O)c2ccco2)CC1", "Potency": "active: 8.28 µM"},
      {"smiles": "CCc1ccc(S(=O)(=O)NCCc2csc(-c3cccnc3)n2)s1", "Potency": "inconclusive: 0.0026 µM [inhibitor, full curve, poor fit]"},
      {"smiles": "N#Cc1cccc(OC(=O)c2ccc3c(=O)n4c(nc3c2)CCC4)c1", "activity change, negative = inhibition": "inactive: 47.2%"},
      {"smiles": "CC(Cc1ccc(O)c(O)c1)C(C)Cc1ccc(O)c(O)c1", "note": "(stereo not given)", "Potency": "active: 15.1 µM"},
      {"smiles": "COc1cc(CNc2cccc(F)c2)cc(Br)c1O", "Potency": "inconclusive: 18.5 µM [inhibitor, single point]"},
      {"smiles": "COc1cccc(NC(=O)COC(=O)CCC(=O)c2cccs2)c1", "activity change, negative = inhibition": "inactive: 0%"},
      {"smiles": "CCn1cc(S(=O)(=O)NC2CCCCC2)cn1", "Potency": "inconclusive: 10.4 µM [inhibitor, single point]"},
      {"smiles": "OCCNc1ncnc2c1ncn2Cc1ccccc1", "activity change, negative = inhibition": "inactive: -16.6%"},
      {"smiles": "O=C(CNC(=O)c1cccs1)Nc1ncccc1O", "activity change, negative = inhibition": "inactive: 6.04%"},
      {"smiles": "O=C(CNS(=O)(=O)c1ccc2c(c1)OCCCO2)N1CCN(Cc2ccccc2)CC1", "Potency": "inconclusive: 18.5 µM [inhibitor, single point]"},
      {"smiles": "Nc1ccc(Oc2c(Cl)cccc2Cl)nc1", "activity change, negative = inhibition": "inactive: 9.7%"},
      {"smiles": "COc1ccc(N2CCN(C(=O)/C(C#N)=C/c3ccccc3)CC2)cc1", "Potency": "inconclusive: 23.3 µM [inhibitor, partial curve, poor fit]"},
      {"smiles": "CCc1cc2c(SCC(=O)Nc3cc(C)on3)ncnc2s1", "activity change, negative = inhibition": "inactive: -27%"},
      {"smiles": "CCOc1ccc(CN(C)C(=O)CCc2ccc(S(=O)(=O)N3CCCCCC3)cc2)cc1", "Potency": "inconclusive: 18.5 µM [inhibitor, single point]"},
      {"smiles": "O=C(N/N=C/c1cccnc1)c1cc2c(ccc3ccccc32)o1", "Potency": "inconclusive: 11.7 µM [inhibitor, single point]"},
      {"smiles": "C[C@]12CCC(=O)CC1CCC1C2CC[C@@]2(C)C1CC[C@@]21CCO1", "note": "(stereo not given in full)", "Potency": "inconclusive: 14.7 µM [inhibitor, partial curve, poor fit]"},
      {"smiles": "CC1CCN(C(=O)C2CCN(S(=O)(=O)c3cc(Cl)ccc3Cl)CC2)CC1", "Potency": "inconclusive: 4.15 µM [inhibitor, full curve]"},
      {"smiles": "Cc1c(C)c2c(OCC(=O)NCc3ccncc3)cc3c(c2oc1=O)CCC(C)(C)O3", "Potency": "active: 2.94 µM"},
      {"smiles": "c1ccc(C2c3c(ccc4ccccc34)Oc3ncn4nc(-c5ccco5)nc4c32)cc1", "note": "(stereo not given)", "Potency": "inconclusive: 4.15 µM [inhibitor, single point]"},
      {"smiles": "Cc1nnc(N2CCOCC2)c2nn(-c3cccc(Cl)c3)c(C)c12", "Potency": "inconclusive: 18.5 µM [inhibitor, single point]"},
      {"smiles": "COc1ccc(OC)c(C(=O)c2ccc(C(=O)Nc3ccc4ccccc4c3)cc2)c1", "Potency": "inconclusive: 13.1 µM [inhibitor, single point]"},
      {"smiles": "CCC1CCCCN1S(=O)(=O)c1ccc(C(=O)Nc2nnc(C3CC3)o2)cc1", "note": "(stereo not given)", "Potency": "inconclusive: 9.28 µM [inhibitor, partial curve, poor fit]"},
      {"smiles": "COc1ccccc1OCc1nc(C#N)c(N2CC(C)CC(C)C2)o1", "note": "(stereo not given)", "Potency": "inconclusive: 14.7 µM [inhibitor, partial curve, poor fit]"},
      {"smiles": "Cc1ccc(NS(=O)(=O)c2cc(C(=O)NCCCN(C)C)ccc2Cl)cc1Cl", "Potency": "inconclusive: 10.4 µM [inhibitor, partial curve]"},
      {"smiles": "O=C(Nc1ccccc1N1CCCC1)c1cc(=O)[nH]c2ccccc12", "activity change, negative = inhibition": "inactive: -3.89%"},
      {"smiles": "CCCCCCCCCCCCCCCC(=O)OCC(COC(=O)CCCCCCCCCCCCCCC)OC(=O)CCCCCCCCCCCCCCC", "activity change, negative = inhibition": "inactive: 7.95%"},
      {"smiles": "Cc1ccccc1NC(=O)N1CCNC(=O)C1CC(=O)Nc1cc(Cl)ccc1Cl", "note": "(stereo not given)", "activity change, negative = inhibition": "inactive: -7.36%"},
      {"smiles": "CCN(c1ccccc1)S(=O)(=O)c1ccc(C(=O)Nc2cccc(C)n2)cc1", "Potency": "inconclusive: 10.4 µM [inhibitor, single point]"},
      {"smiles": "CCN1CCN(CCNC(=O)C2CCN(Cc3nc(-c4ccc(Cl)cc4)oc3C)CC2)CC1", "Potency": "inconclusive: 14.7 µM [inhibitor, partial curve]"},
      {"smiles": "Cn1c(N)c(C(=O)CSc2nc(C3CC3)n(-c3ccccc3)n2)c(=O)[nH]c1=O", "Potency": "inconclusive: 9.28 µM [inhibitor, single point]"},
      {"smiles": "Cc1nc2ccc(S(=O)(=O)NCC(=O)NC(C)c3ccccc3)cc2s1", "note": "(stereo not given)", "activity change, negative = inhibition": "inactive: -9.48%"},
      {"smiles": "CCN(C(=O)COC(=O)/C=C/c1cccc([N+](=O)[O-])c1)c1c(N)n(Cc2ccccc2)c(=O)[nH]c1=O", "Potency": "inconclusive: 18.5 µM [inhibitor, single point]"}
    ]}
  ]
}
